# Test results taken from PubChem BioAssay AID2685 (National Center for Advancing Translational Sciences (NCATS), 2010).
# The other results are listed elsewhere or left out. Shown are side measurements of this screen, not its main read-out; they come without a call. Most of these compounds were active or inconclusive in the main read-out, so they are no random draw. Potencies come from curve fits of mixed quality, noted in brackets.
# Assay: qHTS Assay for Lipid Storage Modulators in Drosophila S3 Cells;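 as to cell number change: cells counted by Cell Tracker Red CMTPX staining in the red channel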
# Settings: BODIPY lipid droplet fluorescence, 18-24 h; for cell number change: measured here: cell count max response, cells fed with added oleic acid
# Summary of the method: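 Drosophila S3 cells loaded with oleic acid (400 uM, as added) and compounds at several concentrations; lipid droplets imaged by 488-nm laser-scanning cytometry, 500–530 nm intensity and object ratio to cell channel. Percent activity normalized to 20 uM Triacsin C.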
# [1] = measured here: lipid fluorescence (Fed channel) AC50, cells fed with added oleic acid
# [2] = measured here: cell number channel AC50, cells fed with added oleic acid
Structure (SMILES),cell number change,AC50 [1],AC50 [2]
CCOCCc1nnc(NC(=O)C(CC)c2ccccc2)s1 (stereo not drawn),22.2%,"29.1 µM [rising, single point]",–
COc1ccc(-c2nc(NC(=O)C3CC(=O)N(Cc4ccco4)C3)sc2C)cc1 (stereo not drawn),-8.29%,"6.51 µM [falling, single point]","2.91 µM [falling, single point]"
O=C(COc1ccc2ccccc2c1Br)Nc1cccnc1,-10.8%,"29.1 µM [falling, single point]",–
CC(C)Oc1cccc(C(=O)NC(=S)Nc2ccc(N3CCN(C)CC3)cc2)c1,-16.9%,"2.06 µM [rising, partial curve, poor fit]",–
CCCc1cc(=O)oc2c(C)c3occ(C)c3cc12,14%,"0.731 µM [rising, full curve]",–
N#Cc1ccccc1S(=O)(=O)N1CCN(C(=O)[C@@H]2CCCN2C(=O)c2cccs2)CC1,-7.64%,–,–
Cc1cccc(-c2cc3nc4c(c(NCc5ccco5)n3n2)CCCC4)c1,-18.4%,"2.06 µM [falling, full curve, poor fit]",–
CCCc1cc(=O)n2[nH]c(NC(=O)c3ccco3)nc2n1,19.2%,–,–
O=C(N/N=C/c1ccccn1)c1ccncc1,-9.01%,–,–
CCNc1nc(NCC)nc(N(n2cnnc2)S(=O)(=O)c2ccc(C)cc2)n1,-4.84%,–,"0.82 µM [falling, full curve, poor fit]"
N#Cc1nc(-c2cccc3ccccc23)oc1NCC#CCOC(=O)c1cccs1,–,"16.4 µM [falling, partial curve]",–
O=C(O)C1CCCCC1C(=O)NCc1ccccc1 (stereo not drawn),7.85%,"0.731 µM [falling, full curve]",–
COc1ccc(CN2c3cc(S(=O)(=O)N4CCOCC4)ccc3N3CCCC32)cc1 (stereo not drawn),–,"18.4 µM [falling, partial curve]",–
O=C(Nc1ccc(Cl)cc1)C1C2C=CC3(O2)C1C(=O)N(CCCN1CCCCC1)C3C(=O)NC1CCCCC1 (stereo not drawn),24.6%,"1.16 µM [falling, single point]",–
Cc1c(C(=O)N2CCCCC2)c(S(=O)(=O)N2CCN(c3ccccc3F)CC2)c(C)n1C,-2.64%,–,–
O=C1CC(c2ccccc2)CC(O)=C1C=NCCN1CCN(C(=S)Nc2cccc(Cl)c2)CC1 (stereo not drawn),6.2%,"0.146 µM [falling, partial curve, poor fit]",–
Cc1ccc(Cl)cc1N1CCN(C(=O)CN(C2CCCCC2)S(C)(=O)=O)CC1,-29.2%,"20.6 µM [falling, partial curve]",–
CC1SCC(=O)N(CC(=O)NC2CCCCC2)C1=O (stereo not drawn),16.7%,–,"0.58 µM [rising, full curve, poor fit]"
Cc1ccc(N(CC(=O)NCCc2ccccc2)C(=O)CCC(=O)Nc2cc(C)ccn2)cc1,8.33%,–,–
COc1ccc(-n2cc(-c3ccc(OC(F)F)cc3)[n+]3c2CCCCC3)cc1,-55.3%,"6.51 µM [rising, single point]","1.46 µM [rising, single point]"
O=C(COC(=O)Cc1c[nH]c2ccccc12)Nc1c(Cl)cccc1C(F)(F)F,-31.5%,"13 µM [falling, partial curve]","29.1 µM [falling, single point]"

Structure (SMILES),cell number change,AC50 [1],AC50 [2]
CCOc1cccc(/C=N/NC(=O)c2cccnc2)c1O,-5.51%,"0.82 µM [rising, full curve, poor fit]",–
O=C(OCCOc1ccc(Br)cc1)c1ccc(Cl)c(S(=O)(=O)N2CCOCC2)c1,-2.81%,–,–
O=C(/C=C/c1cccc(F)c1)NC1CCN(Cc2ccccc2)CC1,4.76%,–,–
COc1cc(CCC(=O)OCC(=O)Nc2ccccc2OC(F)F)cc(OC)c1OC,24.3%,–,–
O=c1c2ccccc2nc2n1-c1ccccc1CCC2,0.414%,"0.184 µM [rising, full curve, poor fit]",–
O=C(NCc1cccc(C(F)(F)F)c1)c1ccc(=O)[nH]c1,6.58%,–,–
O=C(CCCC(=O)Nc1cccc(Br)c1)N/N=C/c1cc([N+](=O)[O-])ccc1O,16.6%,"1.64 µM [rising, partial curve]","0.731 µM [rising, full curve, poor fit]"
CCOC(=O)c1ccc(N2C(=O)c3n[nH]c(C)c3C2c2ccc(OC)c(OC)c2)cc1 (stereo not drawn),-4.65%,"0.58 µM [rising, single point]",–
COc1ccc([N+](=O)[O-])cc1Nc1c2ccccc2nc2ccccc12,-81.4%,–,"11.6 µM [falling, partial curve]"
Cc1cc(C)c2c(c1)[C@@H]1C=CC[C@@H]1[C@H](c1ccc(S(=O)(=O)N3CCOCC3)cc1)N2,2.97%,"6.51 µM [falling, single point]",–
O=C1CCC(=O)N1CCCCCc1nc(-c2ccccc2)no1,33.6%,"18.4 µM [rising, partial curve]","25.9 µM [rising, single point]"
CCN(CC)C(=O)COc1ccc(/C=C(\C#N)S(=O)(=O)c2ccccc2)cc1OC,7.5%,–,–
O=c1[nH]c(C2CCN(S(=O)(=O)c3ccccc3F)CC2)nc2c1nnn2Cc1ccc(OC(F)(F)F)cc1,5.37%,–,–
CCOC(=O)c1[nH]c(C)c(C(=O)Nc2ccccc2C)c1C,–,"0.411 µM [rising, full curve]",–
CC(=O)N[C@H]1C[C@@H]1c1ccccc1,6.07%,"4.11 µM [falling, full curve]",–
COc1ccc(C(=O)Nc2cccc(/C(C)=N/NC(=O)c3ccc([N+](=O)[O-])cc3)c2)cc1OC,17.2%,"29.1 µM [rising, single point]",–
Cc1c(NC(=O)CSc2ncccn2)c(=O)n(-c2ccccc2)n1C,-11.1%,–,–
NC(=O)C1CCCN(C(=O)c2ccc(NC(=O)c3cccs3)cc2)C1 (stereo not drawn),-0.775%,"3.66 µM [falling, partial curve]",–
COc1ccc(Cl)cc1NC(=O)CN1CCc2ccccc2C1,-35.9%,"6.51 µM [falling, single point]","29.1 µM [falling, single point]"
Cc1cc(C)n(-c2nc(SCC(=O)NCC3CCCO3)c3c4c(sc3n2)CCCC4)n1 (stereo not drawn),-14.1%,"29.1 µM [falling, single point]",–
COc1cc(C(=O)NCc2cccc(Cl)c2)ccc1OCC(=O)N1CCOCC1,27.1%,"18.4 µM [rising, single point]",–

Structure (SMILES),cell number change,AC50 [1],AC50 [2]
Cc1ccccc1Oc1ccc(NC(=O)C2CC=CCC2C(=O)O)cc1 (stereo not drawn),5.31%,"3.26 µM [rising, single point]",–
Cn1nnc2cc(NC(=O)NCc3ccc4c(c3)OCO4)ccc21,6.12%,"3.66 µM [rising, single point]",–
Cc1ccc(NC(=O)COc2ccccc2)c(NC(=O)c2ccco2)c1,–,–,"0.103 µM [rising, full curve, poor fit]"
CCn1c(=NC(=O)CSC(C)=O)sc2cc(F)ccc21,-26%,"6.51 µM [falling, single point]",–
COc1ccc(NCc2ccc(OC)c(Cn3ccnc3)c2)c(OC)c1,8.12%,"3.66 µM [rising, partial curve, poor fit]","4.61 µM [rising, partial curve, poor fit]"
CC(C)CN(c1ccccc1)S(=O)(=O)c1nnc(NC(=O)c2ccco2)s1,2.14%,"3.66 µM [falling, single point]",–
O=C(CSc1nnc(-c2ccc(O)cc2)n1Cc1ccccc1)NNC(=O)c1ccc(Br)cc1,6.71%,"2.06 µM [falling, partial curve]","3.66 µM [falling, single point]"
O=C1c2[nH]nc(-c3ccccc3O)c2C(c2cccc(Cl)c2)N1CC1CCCO1 (stereo not drawn),7.56%,"1.84 µM [rising, partial curve, poor fit]",–
O=C(Nc1ccccc1)Nc1cccc2nsnc12,-13.2%,"29.1 µM [falling, single point]",–
CCn1c(CNC(=O)c2ccco2)nnc1SCC(=O)Nc1ccccc1Cl,-10.5%,"29.1 µM [rising, single point]",–
CCOc1ccc(NC(=O)COc2ccc(C(=O)NCCc3ccccc3)cc2)cc1,15.4%,"16.4 µM [rising, partial curve, poor fit]",–
COc1ccc(-c2ccc(NC(=O)c3ccco3)cc2)nn1,-8.22%,"6.51 µM [falling, single point]",–
CC1CCCN(S(=O)(=O)c2ccc(S(=O)(=O)NC(C)c3cccs3)cc2)C1 (stereo not drawn),–,–,"6.51 µM [rising, single point]"
C=CCNc1nc(N)c([N+](=O)[O-])c(Nc2cccc(Cl)c2)n1,-4.01%,"0.461 µM [falling, full curve, poor fit]",–
COc1cccc(CNCCOCCO)c1OC,2.23%,–,–
O=C(O)CCCCCN1C(=O)C(=O)/C(=C(/O)c2ccccc2)C1c1ccccc1 (stereo not drawn),-9.74%,"0.13 µM [falling, full curve]",–
O=C(NCCSCc1ccco1)Nc1cccc(Cl)c1,–,–,"6.51 µM [falling, single point]"
CCc1cc(C(=O)NN2C(=O)NC3(CCCCC3)C2=O)sc1C,5.09%,–,–
CN(C)c1oc(-c2ccco2)nc1S(=O)(=O)c1ccc(Br)cc1,37%,"9.2 µM [rising, partial curve]","4.61 µM [rising, partial curve, poor fit]"
Cc1cc(-n2c(C)cc(C(=O)CSc3ccc4c(c3)OCCO4)c2C)no1,-29.7%,"16.4 µM [falling, partial curve, poor fit]",–

# One compound at a time, from the list above:
# `Cc1ccccc1Oc1ccc(NC(=O)C2CC=CCC2C(=O)O)cc1` (stereo not drawn) reads cell number change: 5.31%; AC50 [1]: 3.26 µM [rising, single point]
# `O=C(/C=C/c1cccc(F)c1)NC1CCN(Cc2ccccc2)CC1` reads cell number change: 4.76%
# `Cc1c(C(=O)N2CCCCC2)c(S(=O)(=O)N2CCN(c3ccccc3F)CC2)c(C)n1C` reads cell number change: -2.64%
